This data set concerns the target T1, tyrosinase (endogenous, normal human melanocytes) (Homo sapiens) (UniProt P14679).
T1 sequence (looked up, limits assumed): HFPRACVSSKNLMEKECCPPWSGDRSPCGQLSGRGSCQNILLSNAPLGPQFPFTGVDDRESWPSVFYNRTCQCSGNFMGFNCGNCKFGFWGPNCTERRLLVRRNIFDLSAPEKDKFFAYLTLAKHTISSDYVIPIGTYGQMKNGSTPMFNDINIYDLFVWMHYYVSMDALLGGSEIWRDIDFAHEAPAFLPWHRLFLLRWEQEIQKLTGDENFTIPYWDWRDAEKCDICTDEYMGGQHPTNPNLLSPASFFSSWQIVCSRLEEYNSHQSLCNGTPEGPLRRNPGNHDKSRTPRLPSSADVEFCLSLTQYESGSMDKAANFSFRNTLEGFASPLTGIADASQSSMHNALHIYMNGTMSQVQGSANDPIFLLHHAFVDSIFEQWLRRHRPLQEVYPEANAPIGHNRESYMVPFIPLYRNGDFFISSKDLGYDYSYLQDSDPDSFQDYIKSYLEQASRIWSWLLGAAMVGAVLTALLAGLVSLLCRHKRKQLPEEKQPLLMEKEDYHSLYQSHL
Nature of the data set: activity in cells. As to conditions: protein in cells, single-stranded DNA.

Weaker means in comparison with the reference protein, sequence or condition of that experiment. Tags and fusion partners may be left off the protein sequences shown.

For the sequence CGCAATGGGCG [T10.1D], the “functional effect of the aptamer” value (lowest inhibition, not significant at 4 and 20 nM, significant at 100 and 200 nM, variant of T10.1) is reported as “less active”.

As for “GCCTCCTGTCGAACGCAATGGGCGCAGATTGGAAGGC [T10.1A]”, the “functional effect of the aptamer” value (inhibits, but less than T10.1, in particular at 4 and 20 nM, variant of T10.1) is listed as “less active”.

“GCCTGTTGTGAGCCTCCTGTCGAACGCAATGGGCGCAGATTGGAAGGCCTAGCATTGAGCGTTTATTCTTGTCTCCC [T10.1]”: the “functional effect of the aptamer” value (results similar to round 10 pool (greater than 75% effect), 4-200 nM, no dose dependence) is reported as “active”.
